Results published in US20260130928A1, “COMBINATION OF AKR1C3 ACTIVATED ANTICANCER PRODRUG COMPOUND AND ANALGESIC DRUG FOR TREATING CANCER PATIENTS ACCOMPANIED BY PAIN” (ASCENTAWITS PHARMACEUTICALS, LTD., priority 2022, published 2026).
Read-outs that look alike come from different tables or passages of the source.

Legend:
[1] = clinical; conditions: human, in vivo
[2] = Naproxen tablets; drug instructions NDA017581; cited from earlier work

SMILES: COc1ccc2cc([C@H](C)C(=O)O)ccc2c1 [Naproxen]
- Cmax [1]: 423 µM
- Cmax [2]: 97.4 µg/mL
